Assay in all cases: split reporter; BiFC: OsCYCD-nYFP with OsRBR-cYFP or OsCDKA-cYFP co-expressed in Nicotiana benthamiana pavement cells by Agrobacterium infiltration; confocal microscopy after 48 and 72 h; Histone H1.2-RFP as nuclear marker
Assay [1] has as its target OsCYCD1;1-nYFP (rice (Oryza sativa L. spp. japonica, Nipponbare)).
Assay [2] concerns the target OsCYCD1;2-nYFP (rice (Oryza sativa L. spp. japonica, Nipponbare)).
Assay [3] concerns the target OsCYCD2;1-nYFP (rice (Oryza sativa L. spp. japonica, Nipponbare)).
In assay [4] the target is OsCYCD2;2-nYFP (rice (Oryza sativa L. spp. japonica, Nipponbare)).
The target of assay [5] is OsCYCD2;3-nYFP (rice (Oryza sativa L. spp. japonica, Nipponbare)).
Assay [6] addresses OsCYCD3;1-nYFP (rice (Oryza sativa L. spp. japonica, Nipponbare)).
The target in assay [7] is OsCYCD3;2-nYFP (rice (Oryza sativa L. spp. japonica, Nipponbare)).
For assay [8], the target named is OsCYCD4;1-nYFP (rice (Oryza sativa L. spp. japonica, Nipponbare)).
The target of assay [9] is OsCYCD4;2-nYFP (rice (Oryza sativa L. spp. japonica, Nipponbare)).
In assay [10] the target is OsCYCD5;1-nYFP (rice (Oryza sativa L. spp. japonica, Nipponbare)).
Assay [11] concerns the target OsCYCD5;2-nYFP (rice (Oryza sativa L. spp. japonica, Nipponbare)).
In assay [12] the target is OsCYCD5;3-nYFP (rice (Oryza sativa L. spp. japonica, Nipponbare)).
Assay [13] has as its target OsCYCD6;1-nYFP (rice (Oryza sativa L. spp. japonica, Nipponbare)).
Assay [14] concerns the target OsCYCD7;1-nYFP (rice (Oryza sativa L. spp. japonica, Nipponbare)).

These are yes or no findings as the source states them, for the method shown. Binding seen in cells or lysates may run through a third protein. For some assays here: Binding calls can cover weak binding; strength is not graded here. Where a sequence is shown, tags or fusion partners need not be part of it.

B1: OsRBR1-cYFP (protein, UniProt Q84QM3 1-1010)
chain: MEGAAPPASSGSEVTGAGSGKVDAGGGAAMEERFADLCKSKLGLDESITRQAMQLFKESKSILLSSMSSLGSGSPEEIERFWSAFVLYCVSRLGKAGKGKEDGGISLCQILRAFSLNIVDFFKEMPQFCIKVGSVLAGLYGSDWEKRLELKELQANVVHLSLLSRYYKRAYQELFLLNDAKPPENSAEPNAQASDYYRFGWLLFLVLRIQTFSRFKDLVTSTNGLVSVLAVLIVHIPVRLRNFNIKESSSFAKKSDKGVNLIASLCEKYHTSEDELSKAIEKTNTLIVDILKKKPCPAASECQQDRLSFIDPEGLTYFKNLLEEDSLKLSLLMLEKEYENAINTKGELDERMFANDEDSLLGSGSLSGGAINLPGTKRKYDVMASPAKSITSPSPMSPPRFCASPTGNGYCSSKMAPITPVSTAMTTAKWLRSTISPLPSKPSGELLRFFSACDKDVTDDITRRAGIILGAIFTSSSFGERICTSVRSTNRIDAIWTEQRKMEALKLYYRVLESMCRAETQILSGNNLTSLLSNERFHRCMIACSAELVLATHKTVTMMFPAVLEKTGITAFDLSKVIESFVRHEDTLPRELKRHLNSLEERLLESMAWEKGSSMYNSLIVARPTLSAEINRLGLLAEPMPSLDAIAAHHNISLEGLPPLPFQKQEHSPDKDEVRSPKRACTERRNVLVDNNSFRSPVKDTLKSKLPPLQSAFLSPTRPNPAAGGELCAETGIGVFLSKIAKLAAIRIRGLCERLQLSQQVLERVYSLVQQIIIQQTALFFNRHIDQIILCSIYGVAKISQLALTFKEIIFGYRKQSQCKPQVFRSVYVHWASRSRNGKTGEDHVDIITFYNEVFIPTVKPLLVELGSGTSPNKKNEEKCAADGPYPESPRLSRFPNLPDMSPKKVSAAHNVYVSPLRTSKMDTLLSPSSKSYYACVGESTHAFQSPSKDLKVINNRLNSGKKVSGRLNFDVVSDLVVARSLSDQNSASAAATTADIATKTPVKLEQPDC
Take B1: the binding result is “binds” in [1]; “binds” in assay [2]; “no binding” in assay [3]; “binds” in [4]; “no binding” in assay [5]; “no binding” in [6]. Besides, the binding result in assay [7] is “binds”; in assay [8], “no binding”; in assay [9] it was “no binding”; in assay [10], “binds”; in assay [11] it was “binds”; in assay [12], “binds”. Further, the binding result in assay [13] and in assay [14] was “no binding” each time.

For the origin of these results see article PMC10905880.
